Results are given in words; binding and its absence hold for the method and conditions named. In cells and extracts the contact can be indirect. Some binding calls cover weakened binding; strength is not graded here. For part of these data: Where a sequence is shown, tags or fusion partners need not be part of it.
B1: p140C3G (protein, UniProt Q13905 1-1077)
chain: MDTDSQRSHLSSFTMKLMDKFHSPKIKRTPSKKGKPAEVSVKIPEKPVNKEATDRFLPEGYPLPLDLEQQAVEFMSTSAVASRSQRQKNLSWLEEKEKEVVSALRYFKTIVDKMAIDKKVLEMLPGSASKVLEAILPLVQNDPRIQHSSALSSCYSRVYQSLANLIRWSDQVMLEGVNSEDKEMVTTVKGVIKAVLDGVKELVRLTIEKQGRPSPTSPVKPSSPASKPDGPAELPLTDREVEILNKTTGMSQSTELLPDATDEEVAPPKPPLPGIRVVDNSPPPALPPKKRQSAPSPTRVAVVAPMSRATSGSSLPVGINRQDFDVDCYAQRRLSGGSHSYGGESPRLSPCSSIGKLSKSDEQLSSLDRDSGQCSRNTSCETLDHYDPDYEFLQQDLSNADQIPQQTAWNLSPLPESLGESGSPFLGPPFQLPLGGHPQPDGPLAPGQQTDTPPALPEKKRRSAASQTADGSGCRVSYERHPSQYDNISGEDLQSTAPIPSVPYAPFAAILPFQHGGSSAPVEFVGDFTAPESTGDPEKPPPLPEKKNKHMLAYMQLLEDYSEPQPSMFYQTPQNEHIYQQKNKLLMEVYGFSDSFSGVDSVQELAPPPALPPKQRQLEPPAGKDGHPRDPSAVSGVPGKDSRDGSERAPKSPDALESAQSEEEVDELSLIDHNEIMSRLTLKQEGDDGPDVRGGSGDILLVHATETDRKDLVLYCEAFLTTYRTFISPEELIKKLQYRYEKFSPFADTFKKRVSKNTFFVLVRVVDELCLVELTEEILKLLMELVFRLVCNGELSLARVLRKNILDKVDQKKLLRCATSSQPLAARGVAARPGTLHDFHSHEIAEQLTLLDAELFYKIEIPEVLLWAKEQNEEKSPNLTQFTEHFNNMSYWVRSIIMLQEKAQDRERLLLKFIKIMKHLRKLNNFNSYLAILSALDSAPIRRLEWQKQTSEGLAEYCTLIDSSSSFRAYRAALSEVEPPCIPYLGLILQDLTFVHLGNPDYIDGKVNFSKRWQQFNILDSMRCFQQAHYDMRRNDDIINFFNDFSDHLAEEALWELSLKIKPRNITRRKTDREEKT
B2: p130Cas (protein, UniProt P56945-1 1-870)
chain: MNHLNVLAKALYDNVAESPDELSFRKGDIMTVLEQDTQGLDGWWLCSLHGRQGIVPGNRLKILVGMYDKKPAGPGPGPPATPAQPQPGLHAPAPPASQYTPMLPNTYQPQPDSVYLVPTPSKAQQGLYQVPGPSPQFQSPPAKQTSTFSKQTPHHPFPSPATDLYQVPPGPGGPAQDIYQVPPSAGMGHDIYQVPPSMDTRSWEGTKPPAKVVVPTRVGQGYVYEAAQPEQDEYDIPRHLLAPGPQDIYDVPPVRGLLPSQYGQEVYDTPPMAVKGPNGRDPLLEVYDVPPSVEKGLPPSNHHAVYDVPPSVSKDVPDGPLLREETYDVPPAFAKAKPFDPARTPLVLAAPPPDSPPAEDVYDVPPPAPDLYDVPPGLRRPGPGTLYDVPRERVLPPEVADGGVVDSGVYAVPPPAEREAPAEGKRLSASSTGSTRSSQSASSLEVAGPGREPLELEVAVEALARLQQGVSATVAHLLDLAGSAGATGSWRSPSEPQEPLVQDLQAAVAAVQSAVHELLEFARSAVGNAAHTSDRALHAKLSRQLQKMEDVHQTLVAHGQALDAGRGGSGATLEDLDRLVACSRAVPEDAKQLASFLHGNASLLFRRTKATAPGPEGGGTLHPNPTDKTSSIQSRPLPSPPKFTSQDSPDGQYENSEGGWMEDYDYVHLQGKEEFEKTQKELLEKGSITRQGKSQLELQQLKQFERLEQEVSRPIDHDLANWTPAQPLAPGRTGGLGPSDRQLLLFYLEQCEANLTTLTNAVDAFFTAVATNQPPKIFVAHSKFVILSAHKLVFIGDTLSRQAKAADVRSQVTHYSNLLCDLLRGIVATTKAAALQYPSPSAAQDMVERVKELGHSTQQFRRVLGQLAAA

Chains of the proteins cited; added tags and fusions are not shown. Residues count along the entry.
UniProt Q8IZP0: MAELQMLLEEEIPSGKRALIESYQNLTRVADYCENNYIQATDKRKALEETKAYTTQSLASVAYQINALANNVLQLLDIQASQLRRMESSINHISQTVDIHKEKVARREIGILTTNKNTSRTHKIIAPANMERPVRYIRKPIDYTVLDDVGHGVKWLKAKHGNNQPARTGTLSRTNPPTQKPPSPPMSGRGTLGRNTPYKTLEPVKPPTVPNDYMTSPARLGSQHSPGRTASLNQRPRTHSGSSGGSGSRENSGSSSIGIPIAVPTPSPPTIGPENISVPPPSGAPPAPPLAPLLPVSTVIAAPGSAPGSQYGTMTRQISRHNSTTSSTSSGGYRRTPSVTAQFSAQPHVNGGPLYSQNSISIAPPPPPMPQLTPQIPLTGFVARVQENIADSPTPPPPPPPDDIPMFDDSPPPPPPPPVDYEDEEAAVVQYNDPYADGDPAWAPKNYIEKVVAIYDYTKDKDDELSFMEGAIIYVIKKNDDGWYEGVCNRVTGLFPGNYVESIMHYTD
UniProt P00519, residues 61-121: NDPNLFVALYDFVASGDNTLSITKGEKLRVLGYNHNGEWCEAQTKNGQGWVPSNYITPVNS

Tests used:
[1] = target: T1, GST-p130Cas-SH3 (UniProt P56945); test: pull-down; 12 ug GST-fusion protein on glutathione-sepharose 4 fast flow beads with 1 mg K562 protein extract in lysis buffer, 2 h at 4 °C, 3 washes, immunoblot; also lysates of shAbi1-2, shCbl-1, shp130Cas-5 and shControl K562 clones; only the target purified
T1 sequence: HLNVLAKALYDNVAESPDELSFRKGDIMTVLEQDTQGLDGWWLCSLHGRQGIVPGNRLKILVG

[2] = target: Abi1 (human (endogenous in K562)) (UniProt Q8IZP0); test: co-IP; endogenous proteins immunoprecipitated from precleared K562 whole cell lysates (GammaBind G Sepharose), immunoblot; in Figures 5A and 6E cells cultured on 10 ug/ml fibronectin for 24 h; in Figure 6E shC3G or shCT clones
[3] = target: GST-Abl-SH3 (UniProt P00519); test: pull-down; 12 ug GST-fusion protein on glutathione-sepharose 4 fast flow beads with 1 mg K562 protein extract in lysis buffer, 2 h at 4 °C, 3 washes, immunoblot; also lysates of shAbi1-2, shCbl-1, shp130Cas-5 and shControl K562 clones; only the target purified

| Binder | binding [1] | binding [2] | binding [3] |
| --- | --- | --- | --- |
| B1 | binds | – | – |
| B2 | – | binds | binds |

— PMC3629710
